Reference: paper PMC5159797
These are yes or no findings as the source states them, for the method shown. Binding seen in cells or lysates may run through a third protein. For some assays here: Tags and fused reporters may be left off the sequences shown.

T1: SKAP (small kinetochore-associated protein), endogenous (human (endogenous in HeLa)) (UniProt Q9Y448)
T1 sequence: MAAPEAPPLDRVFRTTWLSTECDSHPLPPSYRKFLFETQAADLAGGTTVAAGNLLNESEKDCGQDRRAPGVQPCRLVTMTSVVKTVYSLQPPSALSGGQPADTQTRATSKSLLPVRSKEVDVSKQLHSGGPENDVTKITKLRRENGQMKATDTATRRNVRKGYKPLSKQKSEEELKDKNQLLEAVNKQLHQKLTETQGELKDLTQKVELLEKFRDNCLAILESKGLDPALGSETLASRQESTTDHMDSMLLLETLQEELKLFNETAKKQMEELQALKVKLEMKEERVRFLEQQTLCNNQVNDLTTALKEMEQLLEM

T2: GST-SKAP (UniProt Q9Y448)
T2 sequence: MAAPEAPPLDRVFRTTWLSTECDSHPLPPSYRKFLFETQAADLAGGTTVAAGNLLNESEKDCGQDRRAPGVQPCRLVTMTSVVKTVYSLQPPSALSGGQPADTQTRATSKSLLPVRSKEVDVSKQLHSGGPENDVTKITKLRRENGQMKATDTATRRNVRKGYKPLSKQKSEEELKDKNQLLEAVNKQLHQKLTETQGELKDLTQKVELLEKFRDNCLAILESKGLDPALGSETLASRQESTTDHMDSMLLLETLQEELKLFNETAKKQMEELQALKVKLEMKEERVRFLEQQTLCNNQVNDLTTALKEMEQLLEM


Columns and labels:
[1] = target: T1, SKAP (small kinetochore-associated protein), endogenous (human (endogenous in HeLa)); experiment: co-IP; HeLa cell lysates (synchronized in mitosis; also unsynchronized, prometaphase or metaphase) incubated with SKAP rabbit IgG pre-bound to Protein A/G-agarose, control IgG; Western blot
GST-SKAP = target: T2, GST-SKAP; experiment: pull-down; GST fusion protein-bound sepharose beads incubated 2 h at 4 °C with HEK293T cell lysates containing GFP-tagged proteins; PBS, 0.1% Triton X-100; anti-GFP blot; only the target purified

Binder	binding [1]	binding (GST-SKAP)
Kif2c (MCAK), endogenous (protein, UniProt Q99661 1-725) MAMDSSLQARLFPGLAIKIQRSNGLIHSANVRTVNLEKSCVSVEWAEGGATKGKEIDFDDVAAINPELLQLLPLHPKDNLPLQENVTIQKQKRRSVNSKIPAPKESLRSRSTRMSTVSELRITAQENDMEVELPAAANSRKQFSVPPAPTRPSCPAVAEIPLRMVSEEMEEQVHSIRGSSSANPVNSVRRKSCLVKEVEKMKNKREEKKAQNSEMRMKRAQEYDSSFPNWEFARMIKEFRATLECHPLTMTDPIEEHRICVCVRKRPLNKQELAKKEIDVISIPSKCLLLVHEPKLKVDLTKYLENQAFCFDFAFDETASNEVVYRFTARPLVQTIFEGGKATCFAYGQTGSGKTHTMGGDLSGKAQNASKGIYAMASRDVFLLKNQPCYRKLGLEVYVTFFEIYNGKLFDLLNKKAKLRVLEDGKQQVQVVGLQEHLVNSADDVIKMIDMGSACRTSGQTFANSNSSRSHACFQIILRAKGRMHGKFSLVDLAGNERGADTSSADRQTRMEGAEINKSLLALKECIRALGQNKAHTPFRESKLTQVLRDSFIGENSRTCMIATISPGISSCEYTLNTLRYADRVKELSPHSGPSGEQLIQMETEEMEACSNGALIPGNLSKEEEELSSQMSSFNEAMTQIRELEEKAMEELKEIIQQGPDWLELSEMTEQPDYDLETFVNKAESALAQQAKHFSALRDVIKALRLAMQLEEQASRQISSKKRPQ	no binding	
GFP-Kif2c (protein, UniProt Q99661 1-725) MAMDSSLQARLFPGLAIKIQRSNGLIHSANVRTVNLEKSCVSVEWAEGGATKGKEIDFDDVAAINPELLQLLPLHPKDNLPLQENVTIQKQKRRSVNSKIPAPKESLRSRSTRMSTVSELRITAQENDMEVELPAAANSRKQFSVPPAPTRPSCPAVAEIPLRMVSEEMEEQVHSIRGSSSANPVNSVRRKSCLVKEVEKMKNKREEKKAQNSEMRMKRAQEYDSSFPNWEFARMIKEFRATLECHPLTMTDPIEEHRICVCVRKRPLNKQELAKKEIDVISIPSKCLLLVHEPKLKVDLTKYLENQAFCFDFAFDETASNEVVYRFTARPLVQTIFEGGKATCFAYGQTGSGKTHTMGGDLSGKAQNASKGIYAMASRDVFLLKNQPCYRKLGLEVYVTFFEIYNGKLFDLLNKKAKLRVLEDGKQQVQVVGLQEHLVNSADDVIKMIDMGSACRTSGQTFANSNSSRSHACFQIILRAKGRMHGKFSLVDLAGNERGADTSSADRQTRMEGAEINKSLLALKECIRALGQNKAHTPFRESKLTQVLRDSFIGENSRTCMIATISPGISSCEYTLNTLRYADRVKELSPHSGPSGEQLIQMETEEMEACSNGALIPGNLSKEEEELSSQMSSFNEAMTQIRELEEKAMEELKEIIQQGPDWLELSEMTEQPDYDLETFVNKAESALAQQAKHFSALRDVIKALRLAMQLEEQASRQISSKKRPQ		no binding
